Measurements: the supplement of paper PMC3334620
Whole data set: some 33,000 sequences, median “E-score (-0.5 to 0.5)” near -8e-05, cut for the highest 2% near 0.23. Some of the results follow.

target: T1, Nrg2 (UniProt P38082); assay: PBM E-score (8-mer binding enrichment) (E-score (-0.5 to 0.5)); higher = stronger / more preferred TF binding; conditions: protein concentration: 100 nM; construct: GST-full length
T1 sequence: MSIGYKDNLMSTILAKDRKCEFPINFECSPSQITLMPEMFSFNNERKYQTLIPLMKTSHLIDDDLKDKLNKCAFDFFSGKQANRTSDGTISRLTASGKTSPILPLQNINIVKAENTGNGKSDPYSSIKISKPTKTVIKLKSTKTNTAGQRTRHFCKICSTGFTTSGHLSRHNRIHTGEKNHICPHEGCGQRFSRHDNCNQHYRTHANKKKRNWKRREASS
Summary of the method: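 Full-length yeast transcription factors or their DNA-binding domains, GST-tagged and expressed with PURExpress, were applied at about 100-200 nM to universal all-10-mer Agilent arrays. These arrays had been made double-stranded by primer extension on fresh or once-stripped slides. Detection used fluorescent anti-GST, normalisation used masliner, and E-scores for ungapped eight-base words pooled with reverse complements came from the Universal PBM Analysis Suite.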

| Sequence | PBM E-score |
| --- | --- |
| CGGCAGTC | -0.121 |
| CGGCGGCA | -0.0877 |
| TCCGGCCA | 0.00685 |
| ATCTCGCC | 0.0341 |
| CGCATCAC | -0.173 |
| ATACGTTG | 0.0382 |
| TAATTTGA | 0.00012 |
| CATGTCGA | -0.00093 |
| TACTTATA | -0.0612 |
| AAAGATCT | -0.00505 |
| AAACCTTT | -0.211 |
| CGTCCTAC | -0.0299 |
| TCCTTACA | -0.129 |
| AGTTACAA | 0.187 |
| ATAGTAAT | 0.234 |
| AGACCAGG | -0.0228 |
| CAAGGGGG | -0.247 |
| CCGTACAC | 0.0707 |
| ATCTGGAA | 0.155 |
| AAGTGTGA | -0.0785 |
| GCCACGCA | -0.207 |
| ACGAAGCC | -0.0825 |
| GACCACGA | 0.11 |
| ATGACGTG | 0.0659 |
| CACGCGTA | -0.0726 |

| Sequence | PBM E-score |
| --- | --- |
| CTGTACCA | -0.114 |
| AATGCTGC | 0.0363 |
| ACACTAAG | -0.0286 |
| TCTATGCA | -0.0741 |
| GGAAAAAC | -0.00565 |
| GTGCTAGA | -0.167 |
| GCAGTGAC | -0.0115 |
| GGCATTCA | 0.0471 |
| GACGGCGC | -0.0822 |
| AACTAGAT | 0.029 |
| AGCGCAAA | 0.136 |
| GAACATCC | 0.123 |
| CCCATACC | -0.023 |
| TACAGGTA | -0.0586 |
| CTGTCTCC | -0.0284 |
| ACGCTCCT | -0.157 |
| AAATCACT | 0.124 |
| AGCGCATC | -0.0236 |
| TGCTGAAA | -0.129 |
| ATGCCATG | 0.0663 |
| CATCGCGG | -0.0493 |
| AGGAATAT | 0.101 |
| ATTAGGCA | -0.035 |
| CGAGACGA | -0.0266 |
| GGCGCCCC | -0.0484 |

| Sequence | PBM E-score |
| --- | --- |
| AAACCGGC | 0.00992 |
| CCTATCAC | -0.00258 |
| GCTTGCAC | -0.0351 |
| GTGTATTA | 0.233 |
| GGGAGAAA | -0.169 |
| CCGGCTAG | -0.289 |
| GGCCACCC | -0.0452 |
| CAGGTTGC | 0.0874 |
| AGTGCACT | 0.0692 |
| AGGCTGCA | -0.185 |
| ACTGAACT | -0.00128 |
| GACCTATA | 0.134 |
| GGACAGCC | 0.0643 |
| GGCCGACA | -0.12 |
| CGCAGCCC | -0.0608 |
| GCGCTAGC | -0.213 |
| AACCCTCA | -0.0647 |
| CGGCTTCC | -0.138 |
| AGCGGCCG | 0.0314 |
| CGGCTGAA | -0.00897 |
| ATCAATCA | 0.0745 |
| CACATTGG | 0.0656 |
| CCTTCGGC | -0.249 |
| GCAAGACC | -0.0464 |
| CCGTGTGC | -0.065 |

| Sequence | PBM E-score |
| --- | --- |
| TAGGTTGA | 0.0344 |
| ATCTGGAG | -0.0376 |
| GATCCATA | 0.1 |
| ACTGACTC | -0.0876 |
| GAACGCCA | -0.00659 |
| TGCTTGAA | 0.0462 |
| ACCCGGTA | 0.0638 |
| CTGGGTTA | -0.0413 |
| CAAGTGAC | -0.021 |
| CTGAGGTC | -0.0556 |
| CCTCTTGC | -0.219 |
| GAGGTTCC | 0.0217 |
| AAAGCTAT | -0.00544 |
| CTGGAAGC | -0.261 |
| AATGCACC | 0.0152 |
| CATAGAGC | -0.132 |
| AATTAACC | 0.0735 |
| ATACGACA | 0.0872 |
| ATAAGAAT | 0.135 |
| AGCAACGC | 0.0424 |
| AAAGGCCA | 0.006 |
| ACCAGTAA | 0.0806 |
| ACATTACA | -0.0449 |
| AAACTGTG | 0.198 |
| GGCCTCAC | -0.0963 |

| Sequence | PBM E-score |
| --- | --- |
| AGGCGCTC | -0.143 |
| GATGACAA | 0.186 |
| GCGAACAC | 0.0247 |
| TAACTCAA | 0.0586 |
| CCTTGCAG | -0.0165 |
| ATATGCGA | 0.123 |
| ATCTGCTG | -0.0833 |
| CCAGGGGC | 0.0624 |
| CTCCCCCA | -0.408 |
| CTCACCTC | 0.0434 |
| CCTCGGGC | -0.0765 |
| AACGACGG | 0.106 |
| CGCGAGTA | 0.15 |
| ACGGAGGA | -0.204 |
| CCACATTA | -0.0108 |
| CATTGTGA | 0.156 |
| ACCAGACA | -0.166 |
| CTAGTCGA | -0.0659 |
| GACCATGA | 0.0982 |
| CTGAACCA | 2e-05 |
| TGAATCCA | 0.122 |
| GTCCAAAA | 0.0308 |
| AATCGTGC | 0.138 |
| CAACGAGC | -0.0488 |
| AAAAAGTC | 0.00456 |

| Sequence | PBM E-score |
| --- | --- |
| AACGACAT | 0.111 |
| TGCAGACA | 0.121 |
| CTTTCAGA | 0.0761 |
| AAGGCTGC | -0.224 |
| CGACGGCG | -0.0449 |
| CGCCAATA | 0.111 |
| ACTTACCT | -0.159 |
| AATGCCTA | -0.162 |
| GAAGTAAA | 0.00087 |
| TCATGGGA | -0.0411 |
| AGTGAGAC | -0.103 |
| CTAGGCGC | -0.0811 |
| CGAGTCAG | -0.0915 |
| CTATACCA | -0.0415 |
| AACTTGAT | 0.139 |
| AGTAGTAT | 0.114 |
| GGACGTAC | -0.084 |
| ACAGCAGC | 0.0404 |
| CACTCCAG | 0.0644 |
| CAGCTGAG | 0.0994 |
| CAGATCCG | 0.0649 |
| AAATAGCC | -0.1 |
| CACAACTG | -0.133 |
| CTTGGAAC | -0.0743 |
| GGCAGCAC | -0.0882 |

Another view of part of the listing above:
AACTAGAT
  PBM E-score = 0.029
AGCGCAAA
  PBM E-score = 0.136
GAACATCC
  PBM E-score = 0.123
CCCATACC
  PBM E-score = -0.023

The list continues.

| Sequence | PBM E-score |
| --- | --- |
| CGATGTTC | -0.0442 |
| GGTCCGGA | -0.0171 |
| GAACAAGA | 0.153 |
| ATTGGTGC | -0.00397 |
| GCGGCGCA | -0.0311 |
| TAATAATA | 0.0963 |
| CTATACAA | -0.0419 |
| CGGAGCGC | -0.0834 |
| GTTCTGAA | 0.0613 |
| CAGCACCA | -0.131 |
| TAGGCTCA | -0.234 |
| TCTTGACA | 0.1 |
| ACTAAGTG | 0.0198 |
| CGGGCGTA | -0.117 |
| CGGTCTAA | -0.118 |
| GAGGAGCA | -0.186 |
| ATCGTTTC | 0.00418 |
| CCAGAACA | 0.106 |
| AAAACTAG | 0.0557 |
| GCAAAGCC | -0.268 |
| CACGGTAC | -0.212 |
| CATTATCC | 0.223 |

Individual results from the entries so far:
PBM E-score with CCGGCTAG is entered as -0.289
PBM E-score with GGCATTCA is entered as 0.0471
